Source: PubChem BioAssay AID1224830 (NIAID, 2016)

Aim: 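Genes whose knock-down alters the TNF-alpha reporter response to LPS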 (primary screen)
Cell system: human THP-1 monocytic leukaemia cells, TNF dual-luciferase reporter clone, PMA-differentiated to macrophage-like cells
Reagent: siRNA pool against human genes, 50 nM
Timing: LPS for 4 h, given about 3 days after siRNA transfection
Challenge: bacterial LPS (TLR4 ligand), 10 ng/ml
Detection: 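Ratio of firefly to renilla light, scaled to the plate median and expressed as a robust z-score per replicate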
Direction: TNF reporter robust z-score: higher = stronger TNF reporter response to LPS
Active means: 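a well is active when its z-score exceeds 2.8 or falls below -1.5; control wells carry no call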
Shown is an unselected part of about 18,000 deposited reagents. In the full data, about 2,900 (16%) are marked active. 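Calls are made per well; low scores hint the gene aids the LPS response, high scores that it dampens it.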 Repeated entries: four replicate wells of each siRNA pool. Reagent sequences are not shown.

LILRB5 scored TNF reporter robust z-score -1.01; inactive.
LILRB5 scored TNF reporter robust z-score -0.11; inactive.
Against LILRB5 the deposit lists TNF reporter robust z-score -0.25; inactive.
LILRB5 scored TNF reporter robust z-score 0.3; inactive.
FIBP scored TNF reporter robust z-score 0.62; inactive.
After knock-down of FIBP the results were TNF reporter robust z-score 0.69; inactive.
FIBP scored TNF reporter robust z-score 0.59; inactive.
Depletion of FIBP came out at: TNF reporter robust z-score 1.11; inactive.
Silencing of KRT39 gave: TNF reporter robust z-score -0.25; inactive.
Silencing of KRT39 came out at: TNF reporter robust z-score -0.79; inactive.
KRT39 gave TNF reporter robust z-score 0.42; inactive.
Silencing of KRT39 resulted in: TNF reporter robust z-score -0.2; inactive.
After knock-down of PAFAH1B3, the screen gave TNF reporter robust z-score -1.87; active.
After knock-down of PAFAH1B3, the screen gave TNF reporter robust z-score -1.46; inactive.
PAFAH1B3 scored TNF reporter robust z-score -0.77; inactive.
Knock-down of PAFAH1B3 came out at: TNF reporter robust z-score -0.72; inactive.
Knock-down of PPP1CC came out at: TNF reporter robust z-score -0.2; inactive.
For PPP1CC, the entry reads TNF reporter robust z-score -0.66; inactive.
After knock-down of PPP1CC the results were TNF reporter robust z-score -0.02; inactive.
After knock-down of PPP1CC, the record shows TNF reporter robust z-score 0.68; inactive.
Against SNX29P1 the deposit lists TNF reporter robust z-score 0.32; inactive.
With knock-down of SNX29P1, the record shows TNF reporter robust z-score 1.08; inactive.
Against SNX29P1, the values are TNF reporter robust z-score 1.88; inactive.
With knock-down of SNX29P1 the results were TNF reporter robust z-score -0.34; inactive.
Depletion of SLC2A5 came out at: TNF reporter robust z-score -0.07; inactive.
SLC2A5 gave TNF reporter robust z-score 0.29; inactive.
SLC2A5 showed TNF reporter robust z-score -0.17; inactive.
For SLC2A5 the deposit lists TNF reporter robust z-score 0.12; inactive.
With knock-down of YIF1B, the record shows TNF reporter robust z-score -1.97; active.
Knock-down of YIF1B came out at: TNF reporter robust z-score -1.22; inactive.
For YIF1B the deposit lists TNF reporter robust z-score -1.07; inactive.
Knock-down of YIF1B resulted in: TNF reporter robust z-score -1.27; inactive.
With knock-down of LSM7, the record shows TNF reporter robust z-score 2.54; inactive.
Depletion of LSM7 gave: TNF reporter robust z-score 2.18; inactive.
LSM7 scored TNF reporter robust z-score -0.36; inactive.
After knock-down of LSM7 the results were TNF reporter robust z-score -0.5; inactive.
After knock-down of CFD the results were TNF reporter robust z-score 0.7; inactive.
Against CFD the deposit lists TNF reporter robust z-score 1.23; inactive.
CFD gave TNF reporter robust z-score -0.57; inactive.
CFD showed TNF reporter robust z-score 0.24; inactive.
Depletion of SDR9C7 gave: TNF reporter robust z-score -1.38; inactive.
After knock-down of SDR9C7, the record shows TNF reporter robust z-score -1; inactive.
Knock-down of SDR9C7 resulted in: TNF reporter robust z-score -1.3; inactive.
SDR9C7 showed TNF reporter robust z-score -0.69; inactive.
For CHMP1A, the entry reads TNF reporter robust z-score 0.18; inactive.
For CHMP1A, the values are TNF reporter robust z-score 0.58; inactive.
After knock-down of CHMP1A the results were TNF reporter robust z-score 0.17; inactive.
Knock-down of CHMP1A came out at: TNF reporter robust z-score 1.59; inactive.
Knock-down of EAF1 came out at: TNF reporter robust z-score -1.29; inactive.
Against EAF1, the entry reads TNF reporter robust z-score -1.42; inactive.
EAF1 gave TNF reporter robust z-score -1.47; inactive.
Depletion of EAF1 resulted in: TNF reporter robust z-score -1.76; active.
After knock-down of MVP the results were TNF reporter robust z-score 0.38; inactive.
MVP scored TNF reporter robust z-score 0.17; inactive.
With knock-down of MVP the results were TNF reporter robust z-score -0.01; inactive.
Against MVP, the entry reads TNF reporter robust z-score 1.65; inactive.
After knock-down of ABHD11, the screen gave TNF reporter robust z-score -1.11; inactive.
After knock-down of ABHD11, the record shows TNF reporter robust z-score -0.88; inactive.
ABHD11 gave TNF reporter robust z-score -0.92; inactive.
With knock-down of ABHD11, the screen gave TNF reporter robust z-score 0.03; inactive.
